US20080269237A1, “CARBAMIC ACID COMPOUNDS COMPRISING A PIPERAZINE LINKAGE AS HDAC INHIBITORS” (TOPOTARGET UK LIMITED, priority 2002, published 2008)

Test system: K11 (HPV E7 transformed human keratinocyte line)
Assay: Secondary assay: cell proliferation inhibition WST-1, K11
Format: cell-based
Details: 48 h, read-out: Cell Proliferation Inhibition WST-1 (IC50 unless otherwise specified) K11
Description: Compounds with HDAC inhibition activity, as determined using the primary assay, were subsequently evaluated using secondary cell-based assays. The following cell lines were used:
HeLa—Human cervical adenocarcinoma cell line (ATCC ref. No. CCL-2). K11—HPV E7 transformed human keratinocyte line provided by Pidder Jansen-Duerr, Institut für Biomedizinische Altemsforschung, Innsbruck, Austria. NHEK-Ad—Primary human adult keratinocyte line (Cambrex Corp., East Rutherford, N.J., USA).
Cells were plated in 96-well plates at 3-10×10^3 cells/well in 100 μL of culture medium. The following day, different concentrations of candidate compounds were added and the cells incubated at 37° C. for 48 h. Subsequently, 10 μL/well of WST-1 reagent was added and the cells reincubated for 1 hour. After the incubation time, absorbance was measured.
WST-1 is a tetrazolium salt which is cleaved to formazan dye by cellular enzymes. […] The formazan dye produced is quantified by a scanning multiwell spectrophotometer by measuring the absorbance of the dye solution at 450 nm wavelength (reference wavelength 690 nm).
Percent activity (% activity) in reducing the number of viable cells was calculated for each test compound as: […]
IC50 values were calculated using the software package Prism 3.0 (GraphPad Software Inc., San Diego, Calif.), setting top value at 100 and bottom value at 0.

Compound O=C(CCCCCCC(=O)Nc1ccccc1)NO [SAHA, suberoylanilide hydroxamic acid, reference compound] has an IC50 of 6.82 µM.
